Laboratory results as given in article PMC8366450.
These are yes or no findings as the source states them, for the method shown. Some results given as binding are weak or reduced against the parent protein; the word gives no strength.

Amino acid sequences for entries named in this document (tags omitted).
UniProt Q14103: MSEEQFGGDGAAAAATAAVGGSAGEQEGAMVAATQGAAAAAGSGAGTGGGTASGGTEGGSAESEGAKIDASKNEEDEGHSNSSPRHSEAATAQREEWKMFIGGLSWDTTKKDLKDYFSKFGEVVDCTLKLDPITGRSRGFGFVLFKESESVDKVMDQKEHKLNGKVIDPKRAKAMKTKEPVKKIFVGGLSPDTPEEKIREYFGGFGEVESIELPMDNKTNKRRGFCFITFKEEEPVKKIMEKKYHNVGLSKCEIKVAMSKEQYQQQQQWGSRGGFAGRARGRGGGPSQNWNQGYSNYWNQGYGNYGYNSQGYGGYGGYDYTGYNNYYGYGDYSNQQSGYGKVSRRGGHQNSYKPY
UniProt P18206: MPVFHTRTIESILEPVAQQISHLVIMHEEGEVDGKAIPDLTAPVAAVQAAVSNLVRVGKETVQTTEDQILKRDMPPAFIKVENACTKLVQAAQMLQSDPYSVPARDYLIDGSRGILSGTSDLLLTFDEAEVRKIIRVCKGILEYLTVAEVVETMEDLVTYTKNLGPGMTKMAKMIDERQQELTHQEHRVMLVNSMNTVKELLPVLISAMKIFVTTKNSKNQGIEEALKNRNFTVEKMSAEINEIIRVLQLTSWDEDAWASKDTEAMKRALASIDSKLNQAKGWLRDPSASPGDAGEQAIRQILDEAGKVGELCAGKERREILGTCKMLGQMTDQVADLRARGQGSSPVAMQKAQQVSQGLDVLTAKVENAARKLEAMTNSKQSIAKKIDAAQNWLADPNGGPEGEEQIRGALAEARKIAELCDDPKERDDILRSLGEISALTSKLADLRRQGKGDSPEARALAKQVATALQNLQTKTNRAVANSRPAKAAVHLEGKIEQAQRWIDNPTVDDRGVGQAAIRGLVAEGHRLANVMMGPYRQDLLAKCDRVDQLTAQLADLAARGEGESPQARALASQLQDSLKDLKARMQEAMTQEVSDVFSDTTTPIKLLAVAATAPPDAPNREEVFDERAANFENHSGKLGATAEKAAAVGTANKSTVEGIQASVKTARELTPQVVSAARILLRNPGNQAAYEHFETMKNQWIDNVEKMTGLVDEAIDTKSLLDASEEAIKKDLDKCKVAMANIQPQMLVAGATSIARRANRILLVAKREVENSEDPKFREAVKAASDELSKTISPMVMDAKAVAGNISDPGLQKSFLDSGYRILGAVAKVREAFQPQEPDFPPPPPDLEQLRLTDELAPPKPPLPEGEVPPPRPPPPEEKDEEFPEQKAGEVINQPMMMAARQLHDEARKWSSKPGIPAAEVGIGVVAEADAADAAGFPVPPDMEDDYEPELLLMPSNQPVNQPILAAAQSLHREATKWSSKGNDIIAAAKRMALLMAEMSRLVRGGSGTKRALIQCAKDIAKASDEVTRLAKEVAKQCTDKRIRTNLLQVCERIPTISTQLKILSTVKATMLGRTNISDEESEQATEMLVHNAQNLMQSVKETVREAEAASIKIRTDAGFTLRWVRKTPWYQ
UniProt P02686: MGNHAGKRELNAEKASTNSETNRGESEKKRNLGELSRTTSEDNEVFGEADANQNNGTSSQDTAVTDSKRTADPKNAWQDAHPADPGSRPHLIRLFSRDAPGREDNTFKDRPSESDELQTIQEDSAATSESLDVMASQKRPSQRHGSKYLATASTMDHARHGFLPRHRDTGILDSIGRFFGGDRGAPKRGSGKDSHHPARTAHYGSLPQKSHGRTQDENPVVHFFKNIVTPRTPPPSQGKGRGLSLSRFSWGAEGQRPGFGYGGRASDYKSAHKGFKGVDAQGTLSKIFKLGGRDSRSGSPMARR
UniProt O43670: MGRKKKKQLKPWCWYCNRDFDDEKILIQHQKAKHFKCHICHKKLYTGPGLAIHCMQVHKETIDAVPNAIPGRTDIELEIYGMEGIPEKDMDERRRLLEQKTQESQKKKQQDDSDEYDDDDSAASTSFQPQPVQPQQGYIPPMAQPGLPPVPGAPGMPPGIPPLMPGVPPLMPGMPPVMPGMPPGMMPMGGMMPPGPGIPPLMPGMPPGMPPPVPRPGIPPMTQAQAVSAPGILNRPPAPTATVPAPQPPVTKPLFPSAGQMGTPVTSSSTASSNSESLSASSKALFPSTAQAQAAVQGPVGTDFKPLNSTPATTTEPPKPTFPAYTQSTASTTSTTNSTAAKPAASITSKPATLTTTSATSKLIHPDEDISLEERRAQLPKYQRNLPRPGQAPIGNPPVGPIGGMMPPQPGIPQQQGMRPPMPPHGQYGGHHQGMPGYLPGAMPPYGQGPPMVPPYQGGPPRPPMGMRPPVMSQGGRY

Legend:
Assay in all cases: peptide or protein array; HuProt v3.1 human proteome microarray; >20 000 human recombinant proteins immobilised on the array; purified His-V5-CPPED1 applied; both purified
[1] = molecular target: T1, N-acetyltransferase 6 (human) (UniProt Q93015)
T1 sequence: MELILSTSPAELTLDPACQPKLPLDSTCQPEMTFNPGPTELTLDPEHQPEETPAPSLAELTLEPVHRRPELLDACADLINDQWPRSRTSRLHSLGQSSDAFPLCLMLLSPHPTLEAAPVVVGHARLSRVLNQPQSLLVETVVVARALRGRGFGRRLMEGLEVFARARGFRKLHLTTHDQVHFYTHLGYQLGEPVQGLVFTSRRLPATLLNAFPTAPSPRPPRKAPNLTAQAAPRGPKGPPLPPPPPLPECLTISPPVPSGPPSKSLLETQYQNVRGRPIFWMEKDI

[2] = molecular target: Heterogeneous nuclear ribonucleoprotein D (human) (UniProt Q14103)
[3] = molecular target: T2, C1q and TNF related 5 (human) (UniProt Q9BXJ0)
T2 sequence: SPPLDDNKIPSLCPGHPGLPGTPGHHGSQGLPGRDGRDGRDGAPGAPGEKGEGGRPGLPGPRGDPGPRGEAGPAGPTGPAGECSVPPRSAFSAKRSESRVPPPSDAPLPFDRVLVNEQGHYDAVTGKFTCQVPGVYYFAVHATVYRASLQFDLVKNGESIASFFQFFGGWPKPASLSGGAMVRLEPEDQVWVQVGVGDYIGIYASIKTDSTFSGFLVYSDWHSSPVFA

[4] = molecular target: T3, sorbin and SH3 domain containing 1 (human) (UniProt Q9BX66)
T3 sequence: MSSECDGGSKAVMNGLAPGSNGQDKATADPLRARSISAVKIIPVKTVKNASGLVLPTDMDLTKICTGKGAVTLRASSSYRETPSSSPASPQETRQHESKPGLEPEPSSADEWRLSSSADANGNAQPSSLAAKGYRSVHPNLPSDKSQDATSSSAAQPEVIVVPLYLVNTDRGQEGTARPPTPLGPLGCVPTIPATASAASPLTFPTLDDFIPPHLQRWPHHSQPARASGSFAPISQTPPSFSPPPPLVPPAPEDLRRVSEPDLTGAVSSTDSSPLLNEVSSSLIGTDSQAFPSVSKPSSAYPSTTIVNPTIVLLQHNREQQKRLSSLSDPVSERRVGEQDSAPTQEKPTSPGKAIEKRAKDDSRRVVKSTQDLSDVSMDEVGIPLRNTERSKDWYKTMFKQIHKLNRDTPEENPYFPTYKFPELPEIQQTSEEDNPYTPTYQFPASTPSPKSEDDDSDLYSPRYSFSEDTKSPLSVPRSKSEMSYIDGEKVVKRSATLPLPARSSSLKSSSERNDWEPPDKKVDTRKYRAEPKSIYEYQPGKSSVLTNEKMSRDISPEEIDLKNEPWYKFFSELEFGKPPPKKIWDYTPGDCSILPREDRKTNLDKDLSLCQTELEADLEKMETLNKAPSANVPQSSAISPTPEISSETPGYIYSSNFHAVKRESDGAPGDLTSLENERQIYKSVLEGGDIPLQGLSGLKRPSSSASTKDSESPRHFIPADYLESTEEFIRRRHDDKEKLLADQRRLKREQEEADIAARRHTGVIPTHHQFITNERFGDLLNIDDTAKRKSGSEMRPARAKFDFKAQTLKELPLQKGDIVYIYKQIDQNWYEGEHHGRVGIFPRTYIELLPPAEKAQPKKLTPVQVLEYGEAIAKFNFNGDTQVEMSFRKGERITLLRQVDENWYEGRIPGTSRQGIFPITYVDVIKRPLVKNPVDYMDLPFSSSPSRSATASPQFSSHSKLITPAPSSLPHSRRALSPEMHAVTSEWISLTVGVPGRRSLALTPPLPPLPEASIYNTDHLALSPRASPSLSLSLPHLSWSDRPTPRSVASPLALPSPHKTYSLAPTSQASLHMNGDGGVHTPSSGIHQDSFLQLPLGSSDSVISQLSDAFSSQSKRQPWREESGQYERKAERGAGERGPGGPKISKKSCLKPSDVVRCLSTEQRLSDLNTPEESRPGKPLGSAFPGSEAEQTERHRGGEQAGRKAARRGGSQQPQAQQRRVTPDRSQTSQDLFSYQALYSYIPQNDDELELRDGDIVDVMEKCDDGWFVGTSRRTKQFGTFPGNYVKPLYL

[5] = molecular target: T4, Adenosine deaminase, tRNA specific 3 (human) (UniProt Q96EY9)
T4 sequence: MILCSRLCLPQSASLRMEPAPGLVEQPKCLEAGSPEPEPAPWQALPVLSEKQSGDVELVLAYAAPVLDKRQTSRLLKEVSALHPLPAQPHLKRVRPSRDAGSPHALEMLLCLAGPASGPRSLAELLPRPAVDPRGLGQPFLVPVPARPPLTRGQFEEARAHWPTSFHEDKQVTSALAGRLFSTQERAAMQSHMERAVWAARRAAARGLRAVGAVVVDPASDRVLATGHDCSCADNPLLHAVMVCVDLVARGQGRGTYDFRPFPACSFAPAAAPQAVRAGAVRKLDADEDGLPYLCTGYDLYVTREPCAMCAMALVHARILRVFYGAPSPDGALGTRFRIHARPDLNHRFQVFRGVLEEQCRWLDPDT

Vinculin (human) = Vinculin (human) (UniProt P18206)
[6] = molecular target: Myelin basic protein (human) (UniProt P02686)
[7] = molecular target: Zinc finger protein 207 (human) (UniProt O43670)

Measured: binding

human recombinant CPPED1 with N-terminal His-V5 dual tag (from UniProt Q9BRF8 1-314) (enzyme)
binds: [1] | [2] | [3] | [4] | [5] | Vinculin (human) | [6] | [7]
